From publication PMC12639820
Results are given in words; binding and its absence hold for the method and conditions named. Some results given as binding are weak or reduced against the parent protein; the word gives no strength.

Biological target: purified C3d (human), P01024
Assay: ELISA; C3b (5 ug/ml) or C3d (5 ug/ml) coated on wells; purified biotinylated human FH (6 ug/ml) preincubated in solution with different amounts of total IgG from patient serum (kAb) or NHS; both purified
Conditions: remark: other sources report otherwise

binding: binds
B1: purified biotinylated human factor H, P08603 19-1231 (protein)
chain: EDCNELPPRRNTEILTGSWSDQTYPEGTQAIYKCRPGYRSLGNVIMVCRKGEWVALNPLRKCQKRPCGHPGDTPFGTFTLTGGNVFEYGVKAVYTCNEGYQLLGEINYRECDTDGWTNDIPICEVVKCLPVTAPENGKIVSSAMEPDREYHFGQAVRFVCNSGYKIEGDEEMHCSDDGFWSKEKPKCVEISCKSPDVINGSPISQKIIYKENERFQYKCNMGYEYSERGDAVCTESGWRPLPSCEEKSCDNPYIPNGDYSPLRIKHRTGDEITYQCRNGFYPATRGNTAKCTSTGWIPAPRCTLKPCDYPDIKHGGLYHENMRRPYFPVAVGKYYSYYCDEHFETPSGSYWDHIHCTQDGWSPAVPCLRKCYFPYLENGYNQNYGRKFVQGKSIDVACHPGYALPKAQTTVTCMENGWSPTPRCIRVKTCSKSSIDIENGFISESQYTYALKEKAKYQCKLGYVTADGETSGSITCGKDGWSAQPTCIKSCDIPVFMNARTKNDFTWFKLNDTLDYECHDGYESNTGSTTGSIVCGYNGWSDLPICYERECELPKIDVHLVPDRKKDQYKVGEVLKFSCKPGFTIVGPNSVQCYHFGLSPDLPICKEQVQSCGPPPELLNGNVKEKTKEEYGHSEVVEYYCNPRFLMKGPNKIQCVDGEWTTLPVCIVEESTCGDIPELEHGWAQLSSPPYYYGDSVEFNCSESFTMIGHRSITCIHGVWTQLPQCVAIDKLKKCKSSNLIILEEHLKNKKEFDHNSNIRYRCRGKEGWIHTVCINGRWDPEVNCSMAQIQLCPPPPQIPNSHNMTTTLNYRDGEKVSVLCQENYLIQEGEEITCKDGRWQSIPLCVEKIPCSQPPQIEHGTINSSRSSQESYAHGTKLSYTCEGGFRISEENETTCYMGKWSSPPQCEGLPCKSPPEISHGVVAHMSDSYQYGEEVTYKCFEGFGIDGPAIAKCLGEKWSHPPSCIKTDCLSLPSFENAIPMGEKKDVYKAGEQVTYTCATYYKMDGASNVTCINSRWTGRPTCRDTSCVNPPTVQNAYIVSRQMSKYPSGERVRYQCRSPYEMFGDEEVMCLNGNWTEPPQCKDSTGKCGPPPPIDNGDITSFPLSVYAPASSVEYQCQNLYQLEGNKRITCRNGQWSEPPKCLHPCVISREIMENYNIALRWTAKQKLYSRTGESVEFVCKRGYRLSSRSHTLRTTCWDGKLEYPTCAKR
modifications: here or on the partner: biotin (biotinylated; sites not stated)
